Results are given in words; binding and its absence hold for the method and conditions named. For part of these data: In cells and extracts the contact can be indirect. Some entries that bind do so weakly or less than the wild type.
Tests used:
[1] = target: TDP-43 (human) (UniProt Q13148); assay: co-immunoprecipitation, anti-His IP, anti-TDP immunoblot (FIG. 4f)
[2] = target: TDP-43 (human) (UniProt Q13148); assay: co-immunoprecipitation, anti-His IP from His-VCP/p97-expressing 293T lysate, anti-TDP immunoblot
[3] = target: Lam B recombinant protein (Homo sapiens (Human)) (UniProt P20700); assay: co-incubation of recombinant proteins in vitro, electron microscopy (FIG. 13h)

Amino acid sequences for entries named in this document (tags omitted). A change or cut given only in a name is not applied to a line headed by its entry.
UniProt Q13148: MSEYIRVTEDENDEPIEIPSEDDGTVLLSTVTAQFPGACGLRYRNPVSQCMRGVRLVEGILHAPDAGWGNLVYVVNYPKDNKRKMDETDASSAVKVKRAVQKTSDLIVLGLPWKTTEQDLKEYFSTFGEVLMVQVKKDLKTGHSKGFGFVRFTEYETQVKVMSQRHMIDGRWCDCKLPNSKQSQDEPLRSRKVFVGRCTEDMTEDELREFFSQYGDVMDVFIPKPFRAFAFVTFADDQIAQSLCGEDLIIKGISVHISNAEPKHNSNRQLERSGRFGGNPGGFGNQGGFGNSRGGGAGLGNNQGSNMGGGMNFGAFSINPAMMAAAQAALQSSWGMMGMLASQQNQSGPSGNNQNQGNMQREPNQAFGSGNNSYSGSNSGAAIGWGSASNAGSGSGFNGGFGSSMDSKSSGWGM
UniProt P20700: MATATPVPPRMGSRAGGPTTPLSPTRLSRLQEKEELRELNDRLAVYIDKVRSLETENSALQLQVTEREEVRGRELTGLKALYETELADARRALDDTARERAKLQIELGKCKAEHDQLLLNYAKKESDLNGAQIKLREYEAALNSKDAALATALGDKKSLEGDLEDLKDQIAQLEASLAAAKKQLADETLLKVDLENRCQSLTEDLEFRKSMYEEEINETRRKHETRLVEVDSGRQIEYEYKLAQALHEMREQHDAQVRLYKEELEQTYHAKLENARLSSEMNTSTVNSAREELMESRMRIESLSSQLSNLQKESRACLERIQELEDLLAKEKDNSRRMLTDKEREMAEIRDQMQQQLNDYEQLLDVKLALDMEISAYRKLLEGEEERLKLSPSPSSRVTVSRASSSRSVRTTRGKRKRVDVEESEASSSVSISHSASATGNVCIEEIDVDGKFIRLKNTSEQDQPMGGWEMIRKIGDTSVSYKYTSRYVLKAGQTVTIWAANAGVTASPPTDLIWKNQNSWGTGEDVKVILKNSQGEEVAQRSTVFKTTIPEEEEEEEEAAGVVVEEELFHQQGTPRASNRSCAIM

Row | binding [1] | binding [2] | binding [3] | Substance
1 | binds | binds |  | His-VCP/p97 wild type (from UniProt P55072 1-806) (enzyme)
2 |  |  | binds | Purified full-length TDP-43 recombinant protein (from UniProt Q13148 1-414)

— patent US20210121438A1, “METHODS FOR TREATING OR PREVENTING CONFORMATION DISEASES AND METHODS FOR DRUG SCREENING” (GARAGE BRAIN SCIENCE CO., LTD, priority 2018, published 2021)
